Measurements reported in PubChem BioAssay AID1259308 (NCATS, 2017)
In all, the deposit lists about 59,000 reagents; this is a part drawn at random. About 1,510 of all reagents (2.6%) count as active. 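Calls use total luciferase alone and ignore viability, so some active siRNAs may act by altering cell number.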 The numbers tell different reagents against one gene apart.

Aim: 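Candidate targets for better recombinant protein yield in mammalian cells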 (primary screen)
Cell system: human HEK293 embryonic kidney cells stably expressing firefly luciferase (HEK-CMV-Luc2-Hygro)
Reagents: single siRNA against human genes, 0.8 pmol siRNA per well
Timing: 72 h
Read-out: 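Reporter luminescence and viable-cell signal on separate replicate plates, given as percent of non-targeting control and median/MAD z-scores, plus per-cell luciferase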
Reading the numbers: total luciferase, z-score and total luciferase, % of control: higher = more reporter protein produced; luciferase per cell, z-score: higher = more reporter output per viable cell; viable cells, % of control: higher = more viable cells
Call rule: 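Active when the median/MAD z-score for overall luciferase is greater than 3; a gene was taken forward for validation with new siRNAs if at least two of its three siRNAs passed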
Meaning of the calls: active = raised luciferase; inactive = no rise

no.	target gene	reagent	total luciferase, z-score	total luciferase, % of control	luciferase per cell, z-score	viable cells, % of control	Call
1	DGKE	1	0.945	101	0.456	99.8	inactive
2	DGKE	2	0.208	86	-0.408	107	inactive
3	DGKE	3	-0.883	64.3	-0.914	91.4	inactive
4	SEMA5B	1	-2.28	36.6	-2.58	80.5	inactive
5	SEMA5B	2	-0.971	62.6	-0.262	74.9	inactive
6	SEMA5B	3	-0.873	64.5	-1.4	104	inactive
7	C1orf210	1	2.4	130	2	85.5	inactive
8	C1orf210	2	0.101	83.9	-0.102	96.3	inactive
9	C1orf210	3	0.163	85.1	0.228	89.6	inactive
10	ZNF43	1	-0.111	79.7	0.129	86.1	inactive
11	ZNF43	2	-0.0661	80.6	0.803	72.9	inactive
12	ZNF43	3	-0.45	72.9	-0.434	91.4	inactive
13	WDHD1	1	1.16	105	1.18	85.9	inactive
14	WDHD1	2	0.0123	82.1	-0.491	104	inactive
15	WDHD1	3	-0.686	68.2	0.217	72	inactive
16	SYTL4	1	-1.26	56.9	-1.72	99.9	inactive
17	SYTL4	2	0.0643	83.2	0.154	89.2	inactive
18	SYTL4	3	-1.29	56.3	-1.45	92.1	inactive
19	AMER1	1	0.587	93.6	0.788	85	inactive
20	AMER1	2	-0.853	64.9	-0.758	88.6	inactive
21	AMER1	3	0.892	99.6	0.941	86.9	inactive
22	GNGT2	1	-0.373	74.5	1.11	62.1	inactive
23	GNGT2	2	1.22	106	0.99	91.5	inactive
24	GNGT2	3	0.59	93.6	0.301	96.7	inactive
25	EIF4ENIF1	1	-0.0567	80.8	0.233	84.9	inactive
26	EIF4ENIF1	2	-0.827	65.4	-0.731	88.6	inactive
27	EIF4ENIF1	3	-0.0466	81	0.0457	89.4	inactive
28	TXNRD3	1	-0.235	77.2	0.18	82.3	inactive
29	TXNRD3	2	0.397	89.8	0.289	93	inactive
30	TXNRD3	3	0.392	89.7	-0.319	109	inactive
31	TXNRD3	4	-0.775	66.5	-0.369	81.9	inactive
32	TXNRD3	5	-1.23	57.3	-1.45	93.8	inactive
33	TXNRD3	6	-0.328	75.4	0.137	81.2	inactive
34	CD2BP2	1	-0.49	72.1	-0.816	99.9	inactive
35	CD2BP2	2	-0.453	72.9	-0.45	91.7	inactive
36	CD2BP2	3	-0.0828	80.2	-0.451	101	inactive
37	MYH3	1	-1.02	61.6	-1.14	93	inactive
38	MYH3	2	-0.17	78.5	0.188	83.5	inactive
39	MYH3	3	0.0425	82.7	0.293	85.6	inactive
40	TSLIG3A	1	0.25	86.9	-0.471	110	inactive
41	TSLIG3A	2	1.51	112	0.873	99.5	inactive
42	TSLIG3A	3	-1.24	57.2	-0.524	73.4	inactive
43	UBASH3A	1	0.405	89.9	0.0942	98	inactive
44	UBASH3A	2	-1.01	61.9	-0.754	84.3	inactive
45	UBASH3A	3	-0.732	67.3	-0.749	91.6	inactive
46	ARMC12	1	1.1	104	0.569	99.8	inactive
47	ARMC12	2	1.62	114	1.66	82.4	inactive
48	ARMC12	3	4.46	171	3.08	84.8	active
49	S100Z	1	0.955	101	0.549	97.6	inactive
50	S100Z	2	1.46	111	2.07	71.8	inactive
51	S100Z	3	0.191	85.7	1.95	57.3	inactive
52	DNAJC13	1	0.815	98.1	0.584	94	inactive
53	DNAJC13	2	-0.342	75.1	-0.211	88.7	inactive
54	DNAJC13	3	-0.95	63	-0.519	80.7	inactive
55	OR4C12	1	0.448	90.8	1.15	75	inactive
56	OR4C12	2	-0.306	75.8	0.371	76.8	inactive
57	OR4C12	3	-0.592	70.1	-0.324	85.3	inactive
58	RNASEK	1	-0.193	78.1	-0.0601	88.6	inactive
59	RNASEK	2	0.193	85.7	1.25	68.9	inactive
60	RNASEK	3	0.666	95.1	1.17	78.2	inactive
61	PNPLA5	1	-1	61.9	0.354	63	inactive
62	PNPLA5	2	0.0958	83.8	0.384	84.6	inactive
63	PNPLA5	3	2.3	128	1.91	86.2	inactive
64	DAPK3	1	0.0702	83.3	0.0763	91.2	inactive
65	DAPK3	2	0.507	92	0.54	89.1	inactive
66	DAPK3	3	-1.1	60.1	-1.01	87.7	inactive
67	ITFG2-AS1	1	2.89	139	2.34	84.2	inactive
68	ITFG2-AS1	2	-0.301	75.9	-1.09	113	inactive
69	ITFG2-AS1	3	-1.04	61.3	-1.19	93.6	inactive
70	UFSP1	1	3.59	153	2.01	101	active
71	UFSP1	2	0.677	95.3	0.592	91.2	inactive
72	UFSP1	3	-0.173	78.4	-0.499	100	inactive
73	TERB1	1	2.36	129	2.47	75	inactive
74	TERB1	2	-0.0768	80.4	-0.106	92.3	inactive
75	TERB1	3	0.64	94.6	1.49	71.4	inactive

Called active, among the entries above:
target gene	reagent	total luciferase, z-score	total luciferase, % of control	luciferase per cell, z-score	viable cells, % of control	Call
ARMC12	3	4.46	171	3.08	84.8	active
UFSP1	1	3.59	153	2.01	101	active
